# Source: publication PMC7862700
# Chains of the proteins cited; added tags and fusions are not shown. Lines headed by an entry give the natural chain unless they say otherwise; changes in a name come on top.
# UniProt P32519: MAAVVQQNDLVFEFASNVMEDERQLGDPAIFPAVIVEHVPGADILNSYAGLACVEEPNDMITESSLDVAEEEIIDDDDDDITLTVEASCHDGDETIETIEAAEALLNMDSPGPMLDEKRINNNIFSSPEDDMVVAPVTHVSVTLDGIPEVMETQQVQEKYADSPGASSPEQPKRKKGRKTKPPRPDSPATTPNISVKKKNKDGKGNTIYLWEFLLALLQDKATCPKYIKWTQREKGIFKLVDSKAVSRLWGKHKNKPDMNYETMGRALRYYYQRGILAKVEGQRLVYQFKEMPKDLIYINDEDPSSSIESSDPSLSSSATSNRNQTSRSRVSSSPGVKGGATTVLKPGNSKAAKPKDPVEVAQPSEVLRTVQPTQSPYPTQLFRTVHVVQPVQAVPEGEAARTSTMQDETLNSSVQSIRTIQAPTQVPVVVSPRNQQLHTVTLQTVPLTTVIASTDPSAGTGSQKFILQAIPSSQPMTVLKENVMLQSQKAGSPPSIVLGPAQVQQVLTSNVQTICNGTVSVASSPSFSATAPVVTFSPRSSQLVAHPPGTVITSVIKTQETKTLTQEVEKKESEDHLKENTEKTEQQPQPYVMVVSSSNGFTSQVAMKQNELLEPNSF
# UniProt P50549: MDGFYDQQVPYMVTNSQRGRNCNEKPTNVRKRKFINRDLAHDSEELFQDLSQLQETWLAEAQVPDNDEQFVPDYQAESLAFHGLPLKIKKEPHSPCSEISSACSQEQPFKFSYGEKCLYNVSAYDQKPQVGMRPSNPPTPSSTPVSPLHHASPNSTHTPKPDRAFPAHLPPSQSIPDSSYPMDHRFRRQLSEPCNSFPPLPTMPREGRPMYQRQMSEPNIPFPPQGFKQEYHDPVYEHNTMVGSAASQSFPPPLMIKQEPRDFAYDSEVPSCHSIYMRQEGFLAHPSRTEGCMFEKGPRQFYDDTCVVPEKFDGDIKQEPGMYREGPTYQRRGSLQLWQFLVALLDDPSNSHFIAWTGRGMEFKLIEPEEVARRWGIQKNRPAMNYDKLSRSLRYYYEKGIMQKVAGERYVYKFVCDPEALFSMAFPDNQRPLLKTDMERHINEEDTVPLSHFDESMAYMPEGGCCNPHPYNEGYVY
# The entries are a selection whose mix differs from that of the whole data set. For part of these data: At the low end of the ranking the order means little. The list shows a part of the results. For part of these data: The exact form of the protein is not confirmed.
# How the values were obtained:
# Assay in all cases: DAPPL (digital affinity profiling via proximity ligation, sequencing)
# Details in all cases: 10 mM Tris-HCl pH 7.5, 50 mM NaCl, 1 mM DTT, 4% glycerol, room temperature, 30 min; GST-TFs on glutathione beads, 16-mer random dsDNA library, 0.1% …; high values mean tight binding; double strand, one strand shown; scale: fold enrichment (6-mer frequency, TF over GST control)
# ERG = biological target: T1, ERG (UniProt P11308)
# T1 sequence: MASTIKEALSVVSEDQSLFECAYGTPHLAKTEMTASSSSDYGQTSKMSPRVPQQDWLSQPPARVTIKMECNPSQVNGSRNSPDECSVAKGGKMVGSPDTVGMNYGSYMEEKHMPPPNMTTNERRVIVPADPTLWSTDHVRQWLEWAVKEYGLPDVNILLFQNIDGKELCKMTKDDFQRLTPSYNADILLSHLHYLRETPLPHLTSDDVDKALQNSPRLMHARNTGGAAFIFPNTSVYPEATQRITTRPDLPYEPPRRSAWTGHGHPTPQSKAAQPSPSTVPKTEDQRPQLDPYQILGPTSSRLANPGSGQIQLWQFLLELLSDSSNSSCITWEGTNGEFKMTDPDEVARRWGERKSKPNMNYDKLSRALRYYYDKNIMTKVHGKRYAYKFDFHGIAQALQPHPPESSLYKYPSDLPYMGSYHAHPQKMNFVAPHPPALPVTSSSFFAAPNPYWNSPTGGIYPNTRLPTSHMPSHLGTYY
# ELF1 = ELF1 (UniProt P32519)
# ELK4 = biological target: T2, ELK4 (UniProt P28324-2)
# T2 sequence: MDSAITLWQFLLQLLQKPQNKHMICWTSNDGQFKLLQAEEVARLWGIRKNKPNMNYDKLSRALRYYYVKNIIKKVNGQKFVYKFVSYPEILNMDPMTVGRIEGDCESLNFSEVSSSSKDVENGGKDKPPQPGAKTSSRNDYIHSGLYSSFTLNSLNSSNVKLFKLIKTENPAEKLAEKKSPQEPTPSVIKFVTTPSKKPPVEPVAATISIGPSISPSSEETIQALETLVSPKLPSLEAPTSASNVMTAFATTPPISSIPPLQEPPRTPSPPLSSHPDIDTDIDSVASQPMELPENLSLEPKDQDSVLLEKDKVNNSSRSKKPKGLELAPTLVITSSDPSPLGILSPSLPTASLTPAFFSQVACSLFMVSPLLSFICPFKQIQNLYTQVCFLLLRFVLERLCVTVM
# ETV4 = biological target: T3, ETV4 (UniProt P43268)
# T3 sequence: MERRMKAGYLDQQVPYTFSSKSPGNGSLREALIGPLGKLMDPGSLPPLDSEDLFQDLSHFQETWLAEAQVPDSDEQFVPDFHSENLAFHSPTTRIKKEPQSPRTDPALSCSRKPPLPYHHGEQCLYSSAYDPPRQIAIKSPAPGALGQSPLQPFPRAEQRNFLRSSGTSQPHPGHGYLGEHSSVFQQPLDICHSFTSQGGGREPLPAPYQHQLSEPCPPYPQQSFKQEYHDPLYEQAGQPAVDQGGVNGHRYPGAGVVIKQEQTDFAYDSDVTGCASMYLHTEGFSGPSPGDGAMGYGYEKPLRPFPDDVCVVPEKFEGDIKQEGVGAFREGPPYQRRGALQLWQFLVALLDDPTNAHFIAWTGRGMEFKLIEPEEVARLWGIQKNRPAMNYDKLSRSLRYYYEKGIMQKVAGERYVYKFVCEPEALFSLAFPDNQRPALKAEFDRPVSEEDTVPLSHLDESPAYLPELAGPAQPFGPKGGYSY
# ETV1 = ETV1 (UniProt P50549)
# ERF = biological target: T4, ERF (UniProt P50548)
# T4 sequence: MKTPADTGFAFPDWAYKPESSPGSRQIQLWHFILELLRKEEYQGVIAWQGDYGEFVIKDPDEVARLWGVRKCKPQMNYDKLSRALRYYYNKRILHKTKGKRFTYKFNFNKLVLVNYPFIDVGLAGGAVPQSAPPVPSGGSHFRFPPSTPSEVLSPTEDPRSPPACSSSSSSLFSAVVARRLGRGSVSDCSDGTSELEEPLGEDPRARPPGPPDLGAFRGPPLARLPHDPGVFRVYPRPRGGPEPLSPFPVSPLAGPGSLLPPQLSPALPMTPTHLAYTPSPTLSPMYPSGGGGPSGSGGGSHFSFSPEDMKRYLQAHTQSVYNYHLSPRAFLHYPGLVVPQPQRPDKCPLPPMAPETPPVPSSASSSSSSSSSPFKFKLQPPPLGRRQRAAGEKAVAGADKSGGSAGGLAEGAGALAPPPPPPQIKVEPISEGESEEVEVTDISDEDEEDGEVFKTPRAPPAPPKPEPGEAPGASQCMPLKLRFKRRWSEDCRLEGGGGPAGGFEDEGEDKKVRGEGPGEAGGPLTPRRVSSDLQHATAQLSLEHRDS
Sequence,binding signal (ERG),binding signal (ELF1),binding signal (ELK4),binding signal (ETV4),binding signal (ETV1),binding signal (ERF)
GAGCGT,0.362,0.339,0.365,0.348,0.346,0.354
GGTGTC,0.789,0.81,0.672,0.762,0.881,0.743
GACGCT,0.83,0.826,0.787,0.765,0.749,0.825
ACCGGG,0.473,0.497,0.555,0.51,0.539,0.487
GGAGTT,0.446,0.44,0.437,0.437,0.449,0.435
GGCACG,0.876,0.848,0.837,0.887,0.818,0.843
GTGGAG,0.418,0.39,0.505,0.39,0.466,0.399
GGTGGA,0.587,0.593,0.554,0.614,0.59,0.581
TGGGAG,0.447,0.439,0.363,0.434,0.507,0.479
AGTCTA,0.71,0.725,0.723,0.753,0.763,0.803
TGGACG,0.832,0.818,0.861,0.852,0.805,0.796
GGTGAA,0.731,0.853,0.735,0.745,0.858,0.771
GAACGG,0.628,0.549,0.637,0.615,0.645,0.567
GAGTCT,0.415,0.397,0.449,0.446,0.418,0.426
GCAGGC,0.691,0.7,0.679,0.684,0.653,0.681
ACGGGT,0.884,0.94,0.94,0.924,0.92,0.889
AGTAGA,0.745,0.757,0.717,0.805,0.796,0.783
CCCGAG,0.888,0.881,0.865,0.811,0.834,0.984
GAGAAG,0.663,0.695,0.679,0.726,0.742,0.725
ACAGTA,0.847,0.922,0.894,0.948,0.905,0.854
AGGAGA,0.217,0.214,0.19,0.198,0.203,0.232
GAGGCA,0.459,0.454,0.479,0.415,0.461,0.461
GGCAGG,0.611,0.595,0.572,0.566,0.596,0.57
GACTAG,0.688,0.715,0.793,0.761,0.791,0.799
GGACGC,0.399,0.395,0.367,0.412,0.37,0.405
CAGAGC,0.785,0.857,0.902,0.851,0.846,0.874
GCCGCG,0.827,0.786,0.826,0.954,0.759,0.793

# Complete entries as entered above. Order of values: binding signal (ERG) | binding signal (ELF1) | binding signal (ELK4) | binding signal (ETV4) | binding signal (ETV1) | binding signal (ERF)
# AGTCTA as listed: 0.71 | 0.725 | 0.723 | 0.753 | 0.763 | 0.803
# GGCACG as listed: 0.876 | 0.848 | 0.837 | 0.887 | 0.818 | 0.843
